The filed quantity is “Percent Effect” (%). The controls that fix the scale are not given in the record; negative values are as filed. This is an unselected part of the compounds tested.

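Whole-cell assay for inhibitors of Mycobacterium tuberculosis growth, labelled Cornell in the record; the read-out is not stated. The concentration is filed as 10 mM, unlikely as a test dose, so the dose is not known. The record gives no direction; compounds strong in two other growth screens of this library score well above the rest, so higher reads as stronger inhibition. Size under these conditions: about 53,000 compounds, about 900 of them at 50% or above in at least one test.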

For CC(NC(=O)CCS(=O)(=O)C1CCCC1)c1nc(-c2ccccc2)c[nH]1 (stereo not drawn) the result was -10.99%.
For O=C(NC1CCCc2nc(N3CCCCC3)ncc21)C1CCCC1 (stereo not drawn) the result was 12.63%.
For Cn1cccc(NC(=O)N2CCC(CSc3ccccc3)C2)c1=O (stereo not drawn) the result was 21.39%.
For CN(C)[C@@H]1CCN(S(=O)(=O)c2cn(C)cn2)[C@H]1Cc1cccnc1.O=C(O)C(F)(F)F.O=C(O)C(F)(F)F.O=C(O)C(F)(F)F the result was 21.18%.
For CCOC(=O)CNC(=O)NCc1cc(C)n(-c2ccccc2OC)c1C the result was 6.364%.
For COc1ccc(C(=O)N2CCCS2(=O)=O)cc1OC the result was -9.027%.
For Cc1cc(-c2ccccc2C(=O)O)nc(C2CCCN(C)C2)n1 (stereo not drawn) the result was -106.5%.
For Cc1cc(C(=O)N2CCC(Nc3cccnc3)CC2)c(C)s1 the result was 20.28%.
For [H][C@@]12CCC[C@@H](OCc3cccnc3)[C@]1([H])CN(Cc1cnn(C)c1)C2 the result was -5.16%.
For Cc1nn(C)cc1CN1CCCCCC1c1ccccc1Cl (stereo not drawn) the result was 22.32%.
For Cc1ccc2[nH]c(CO[C@H]3CN(C(=O)C4CC4)C[C@H]3F)nc2c1 the result was -25.59%.
For [H][C@]12CN(C(=O)c3ccoc3C)C[C@@]1([H])OCCN(S(C)(=O)=O)C2 the result was -17.65%.
For CC(C)(NS(C)(=O)=O)c1nc(-c2ccc(F)cc2Cl)no1 the result was -2.936%.
For CN(C)C(=O)c1nc2c(s1)CCCN2Cc1ccccc1 the result was -24.94%.
For CC(C)c1cccc(-n2cc(O)c(C(=O)O)n2)c1 the result was 13.27%.
For CN(CCOc1ccccc1)C(=O)Nc1cccn(C)c1=O the result was -0.5961%.
For Cc1cccc(N(CC(=O)N2CCCCC2)Cc2ccno2)c1 the result was 15.44%.
For CCn1nnc2c1C(COCCN(C)C)CN(c1nncs1)C2 (stereo not drawn) the result was -22.6%.
For CCCC(=O)Nc1cccc(C(=O)N(C)CCCC2CCCO2)c1 (stereo not drawn) the result was -4.427%.
For O=C(O)c1coc(COc2cccc3cnccc23)n1 the result was -22.73%.
For COC(=O)C(O)C1CCN(CCc2ccncc2)CC1 (stereo not drawn) the result was -9.397%.
For COc1ncccc1C(=O)N1CCC(CNC(C)=O)CC1 the result was 22.73%.
For COc1cccc2c1OCC(C(=O)NCc1nc3c(s1)CCCC3)C2 (stereo not drawn) the result was 0.3417%.
For O=C(O)C(F)(F)F.[H][C@]12CCC[C@@]1(COCC(=O)N(C)C)CN(C1CCC1)C2 the result was 21.38%.
For Cn1nnnc1SCC(=O)N1CCN(C(=O)C2CC2c2cccs2)CC1 (stereo not drawn) the result was 4.679%.
For Cn1c(CN2CCN(c3cccnc3)CC2)cc2ccccc21 the result was 15.09%.
For C[C@@H](NC(=O)c1cccs1)c1onc(-c2cccnc2)c1C(=O)O.Cl the result was -22.33%.
For O=C(O)C(F)(F)F.[H][C@@]12CCN(S(C)(=O)=O)[C@@]1([H])CCN2Cc1ccc(C)s1 the result was -71.03%.
For COc1ccc2c(OCC(=O)NCC(F)(F)F)ccnc2c1 the result was -15.69%.
For Cc1nc(CSCc2ccc(OCC(F)(F)F)nc2)no1 the result was 16.84%.
For CC(CCSc1ccccc1)N1CCN(C(=O)c2ccccc2O)CC1 (stereo not drawn) the result was 15.91%.
For O=c1ccc(-c2cccs2)nn1CN1CCN(c2ccccn2)CC1 the result was 5.235%.
For O=C(O)C(F)(F)F.O=S(=O)(C1CC1)N1CC[C@]2(C[C@@H](Oc3ccccn3)CO2)C1 the result was 19.51%.
For [H][C@@]12CCCO[C@]1([H])[C@@H](OC)CN2C(=O)c1ccc(C)o1 the result was 13.93%.
For O=S(=O)(c1ccc(F)cc1)N1CCCn2cnc(CN3CCCC3)c2C1 the result was 3.585%.
For [H][C@@]12CCN(C(=O)NC(C)C)[C@@]1([H])CC(=O)N2Cc1cccnc1 the result was 22.12%.
For Cl.Fc1ccccc1Cn1c(C2CCNCC2)cc2cccnc21 the result was 20.8%.
For CNS(=O)(=O)CC(=O)N(C1CC1)C1Cc2ccccc2C1 the result was 13.82%.
For COc1cc(N2CCC3(CCCN(C(=O)c4cccnc4)C3)C2)ncn1.O=C(O)C(F)(F)F (stereo not drawn) the result was -14.35%.
For CC1CN(Cc2cnn(C)c2)CCN1c1ccc2nncn2n1 (stereo not drawn) the result was -20.01%.
For O=C1CCN(C(=O)c2csc(-c3ccc(C(F)(F)F)cc3)n2)CCN1 the result was 23.59%.
For O=C(Nc1nc2c(s1)CCC2)NC1CCCC1 the result was 34.54%.
For CC(C)c1nnc2n1CCN(C(=O)c1cccc(OCC(N)=O)c1)C2 the result was -98.02%.
For Cc1occc1C(=O)N1CCC2(CC1)CC(OCc1ccccn1)CO2.O=C(O)C(F)(F)F (stereo not drawn) the result was -8.962%.
For Cc1nc(NCCSc2cnn[nH]2)c2c(C)noc2n1 the result was 5.402%.
For Cc1ccc(F)cc1NC(=O)c1[nH]ncc1Br the result was 22.06%.
For Cc1ccccc1OCC(O)C(=O)N1CCC2(CC1)CN(C)C(=O)O2 (stereo not drawn) the result was 26.56%.
For O=C(CC1CCCC1)N1CCCC1c1ccc(CN2CCOCC2)cn1 (stereo not drawn) the result was 0.4782%.
For CNc1nc2ncc(Cl)cc2cc1C#N the result was -8.311%.
For O=C(Cc1ccccc1)N1CCC2(CC1)CN(c1ncccn1)CCO2 the result was 18.14%.
For Cc1ccn(-c2ccc(N3CCN(Cc4ccccn4)CC3)nn2)n1 the result was 26.74%.

Repeated from the top, 4 entries:

compound	Percent Effect
CC(NC(=O)CCS(=O)(=O)C1CCCC1)c1nc(-c2ccccc2)c[nH]1 (stereo not drawn)	-10.99
O=C(NC1CCCc2nc(N3CCCCC3)ncc21)C1CCCC1 (stereo not drawn)	12.63
Cn1cccc(NC(=O)N2CCC(CSc3ccccc3)C2)c1=O (stereo not drawn)	21.39
CN(C)[C@@H]1CCN(S(=O)(=O)c2cn(C)cn2)[C@H]1Cc1cccnc1.O=C(O)C(F)(F)F.O=C(O)C(F)(F)F.O=C(O)C(F)(F)F	21.18

Measurements from “University of Dundee, Small-Polar-MMV Screening Library” (2021), ChEMBL document CHEMBL3988442.